Results published in patent US20040034879A1, “Mammalian sex selection using genetic modification” (priority 2000, published 2004).
At least one compound was matched to its structure with a doubt left.

Legend:
Human 293 cells [1] = experiment: Luciferase activity after transient co-transfection with pCMV-Luc; assay type: cell-based; conditions: 24 hours after co-transfection with pBS-CMV-tTA-Barnase-Barstar and pCMV-Luc; tetracycline pretreatment, 2 μg/ml
Human 293 cells [2] = experiment: GFP expression after transient co-transfection with pCMV-GFP; assay type: cell-based; conditions: cells pretreated with tetracycline for 24 hours prior to co-transfection

CN(C)[C@@H]1C(O)=C(C(N)=O)C(=O)[C@@]2(O)C(O)=C3C(=O)c4c(O)cccc4[C@@](C)(O)[C@H]3C[C@@H]12 [tetracycline]
luciferase activity in cells treated with tetracycline versus those not treated (Human 293 cells [1]): about three | GFP in cells co-transfected with pBS-CMV-tTA-Barnase-Barstar and pCMV-GFP (Human 293 cells [2]): production of GFP positive cells
